Earlier results as cited in patent publication US7671089B2 (XenoPort, Inc., priority 2004, dated 2010).
Where two headings read alike, the source gives them in different places.

Conditions: patients

N[C@@H](Cc1ccc(O)c(O)c1)C(=O)O [levodopa, L-3,4-dihydroxyphenylalanine]
half-life of levodopa in the plasma (administered alone): about 50 min | half-life of levodopa in the plasma (given with carbidopa): 1 to 2 h
